Results as given in PubChem BioAssay AID1487 (National Center for Advancing Translational Sciences (NCATS), 2009).
Some of the results follow. Further columns of the screen follow, without active or inactive calls. The list favours compounds with an active or inconclusive main result. Words in brackets tell the shape of the fitted curve; partial curves, single points and poor fits give uncertain potencies.

Assay: qHTS Assay for Modulators of Lamin A Splicing
Conditions: HeLa LMNA splicing GFP/RFP minigene ratio, 48 h
In short: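 Read-out is the ratio of GFP to DsRed2 object intensity, acquired by 488 nm laser-scanning cytometry on HeLa lamin A-EGFP minigene reporter cells. Compound incubation 48 hrs at 37 °C in Opti-MEM with 2% FBS; DMSO 0.5% final.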

[1] = measured here: RFP viability control channel
[2] = measured here: GFP splicing reporter channel

In the case of `CC(C)C(=O)Nc1cccc(C(=O)Nc2ccccc2C(=O)O)c1`, the AC50 [1] is reported as 0.891 µM [falling, full curve, poor fit].

For `CC(N)=NCc1cccc(CN)c1`, the AC50 [2] was 0.000891 µM [falling, full curve, poor fit].

With `COc1ccc(CCn2c(C(C)C)nc3c(c(=O)c4ccccc4n3C)c2=O)cc1` the AC50 [2] was 7.94 µM [rising, partial curve, poor fit] and the AC50 [1] was 10 µM [rising, partial curve].

In the case of `CCOc1ccc(CNC(=O)C2CCN(S(=O)(=O)c3ccc4c(ccn4C)c3)CC2)cc1`, the AC50 [2] is reported as 1.78 µM [falling, full curve] and the AC50 [1] is reported as 1.41 µM [falling, partial curve, poor fit].

For `Cc1ccc(C2C3=C(CC(C)(C)CC3=O)NC3=C2C(=O)c2ccccc23)cc1` (stereo not given), the AC50 [1] was 20 µM [rising, single point].

For `COc1ccc(CCn2c(SCCN3CCCCC3)nc3ccccc3c2=O)cc1OC`, the AC50 [2] was 0.0891 µM [falling, full curve, poor fit] and the AC50 [1] was 0.01 µM [falling, full curve, poor fit].

In the case of `Cc1ccccc1NC(=O)CSc1cn(CC(=O)N2CCCC2)c2ccccc12`, the AC50 [2] is reported as 0.00398 µM [rising, full curve, poor fit].

With `COc1ccc(C(CC(=O)c2ccccc2)S(=O)(=O)c2ccc(C)cc2)cc1` (stereo not given) the AC50 [2] was 35.5 µM [falling, single point] and the AC50 [1] was 17.8 µM [falling, partial curve].

With `CCCc1nn2c(N)c(/C=C3\C=Nc4ccccc43)c(=O)nc2s1` the AC50 [1] was 7.08 µM [rising, partial curve, poor fit].

With `Cc1ccccc1C(=O)/C(C#N)=N/Nc1c(C)n(C)n(-c2ccccc2)c1=O` the AC50 [1] was 6.31 µM [rising, full curve].

With `CC(C)c1cc(=O)oc2c3c4c(cc12)CCCN4CCC3` the AC50 [2] was 1.12 µM [rising, full curve, poor fit] and the AC50 [1] was 10 µM [rising, partial curve, poor fit].

In the case of `Cc1cccc(NC(=S)N/N=C/c2ccc3c(c2)OCO3)c1`, the AC50 [2] is reported as 22.4 µM [rising, partial curve, poor fit] and the AC50 [1] is reported as 25.1 µM [rising, partial curve].

In the case of `O=C(COc1ccc(-c2nnco2)cc1)N1CCN(S(=O)(=O)c2ccc3ccccc3c2)CC1`, the AC50 [1] is reported as 25.1 µM [rising, single point].

In the case of `CCN(C(=O)COC(=O)c1cccnc1Nc1cccc(C(F)(F)F)c1)C1CCS(=O)(=O)C1` (stereo not given), the AC50 [2] is reported as 11.2 µM [rising, single point].
